The exact form of at least one protein or probe is not confirmed.

The data set deals with MethA p53 (mutant p53) (UniProt P02340). The data set can be described thus: EMSA. The note with it: strand separation caused by mut p53, RT, label: 32P. A general note: Mobility shift assays separate free from complexed probe on a gel.

For “AGTGTCTTTAATTTCTAATATATTTAGAAAACTGC (double strand) [MARI IgH enhancer 3'-flanking]”, the binding result (inhibited by PAb421 and PAb240, 10 mM hepes pH 7.8, 50 mM KCl, 5 mM MgCl2, 1 mM EDTA, poly dI:dC) is recorded as “binds”.

Regarding “TTTTAACAATAATAAATTAAGTTTAAAATATTTGCG (double strand) [MARII IgH enhancer 5'-flanking]”, the binding result (same buffer) is “binds”.

(Values after patent US20050070495.)
